Assay results: PubChem BioAssay AID504467 (National Center for Advancing Translational Sciences (NCATS), 2011)
The campaign covered roughly 330,000 compounds. About 7,700 (2.3%) were called active. The inconclusive results got no clear call from the source; some entries with a clear call stand among them for comparison. Calls follow the shape of the dose curve; as a rule, active = well fitted inhibition curve with a large enough effect; inconclusive = small, poorly fitted or top-dose-only effect, or effect the other way; inactive = flat fitted curve, though single readings scatter. Where the call is inconclusive, the potency comes from a doubtful curve fit.

Experiment: qHTS screen for small molecules that inhibit ELG1-dependent DNA repair in human embryonic kidney (HEK293T) cells expressing luciferase-tagged ELG1; also: nearly all actives have a fitted effect of over 55% in size
Settings: HEK293T ELG1-luciferase reporter, luminescence, 16 h, DNA damage induced by 5-fluorouridine; series mostly up to 46.1 µM
Summary of the method: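 Luminescence from the luciferase reporter, measured 30 min after ONE-Glo reagent at room temperature, was the read-out. Beforehand, 2,000 cells per well were exposed for 16 hr at 37 °C to 5-fluorouridine together with compound or vehicle.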
Potency is read from the fitted curve at half-maximal effect.

| SMILES | Potency |
| --- | --- |
| O=C(Nc1ccc([N+](=O)[O-])cc1)c1ccc(Cn2cc([N+](=O)[O-])cn2)cc1 | inconclusive: 6.51 µM [inhibitor, partial curve, poor fit] |
| CCOC(=O)C1(CCc2ccccc2)CCN(C(=O)Cc2nonc2C)CC1 | inconclusive: 10.3 µM [activator, partial curve] |
| Cc1ccc(-c2[nH][nH]c(=O)c(=O)c2N=Nc2ccccc2)cc1 | inactive |
| COCC(=O)N1CCC(Oc2ccc(C(=O)NCc3cc(C)n(C)n3)cc2)CC1 | inactive |
| Cc1cc(C(=O)Nc2ccc3ccccc3c2)oc1C | inconclusive: 5.8 µM [activator, partial curve] |
| COc1ccc(N2CCCn3c2nc2c3c(=O)n(CCc3ccccc3)c(=O)n2C)cc1 | active: 4.11 µM |
| Nc1nccc(/C=C/c2c(Cl)cccc2Cl)n1 | inconclusive: 6.51 µM [inhibitor, single point] |
| N#CCC(=O)c1sccc1-n1cccc1 | inactive |
| Cc1ccc(OCC(=O)N(C)CC(=O)N(CC(C)C)c2c(N)n(CC(C)C)c(=O)[nH]c2=O)c(C)c1 | inconclusive: 0.13 µM [inhibitor, partial curve, poor fit] |
| CCCCc1cc(=O)oc2cc(OCC(=O)NC3CCN(Cc4ccccc4)CC3)ccc12 | inconclusive: 29.1 µM [inhibitor, partial curve, poor fit] |
| COc1ccccc1OCC(=O)Nc1nonc1NC(=O)COc1ccccc1OC | inactive |
| Cn1c(=O)[nH]c(=O)c2c1nc([N+](=O)[O-])n2Cc1ccccc1 | active: 14.6 µM |
| Cc1ccc(NC(=S)Nc2ccc3cn[nH]c3c2)cc1C | inconclusive: 32.6 µM [activator, partial curve, poor fit] |
| Cc1c(C)c2ccc(OCc3ccc(C(=O)O)o3)c(C)c2oc1=O | inconclusive: 29.1 µM [activator, single point] |
| C/C(=N\Nc1ccc2nncn2n1)c1ccccn1 | active: 1.16 µM |
| COc1ccc(NC(c2ccccc2)c2ccncc2)cc1 (stereo unspecified) | active: 25.9 µM |
| O=C(NC1CCCC1)c1cnn2c(C(F)(F)F)cc(-c3ccc4c(c3)OCO4)nc12 | active: 4.11 µM |
| O=C(NCCc1csc(-c2ccccc2)n1)c1c(F)cccc1F | inconclusive: 29.1 µM [inhibitor, single point] |
| CC(=O)Nc1ccc(CN2CCN(C3CCCC3)C(CCO)C2)cc1 (stereo unspecified) | inactive |
| N=c1ccn(CC(=O)c2ccc(-c3ccccc3)cc2)cc1 | inconclusive: 6.51 µM [inhibitor, single point] |
| CCOC(=O)C1CCN(c2ncnc3c2oc2ccccc23)CC1 | inconclusive: 32.6 µM [inhibitor, single point] |
| CC(=O)/C(=N\Nc1ccccc1)Oc1ccc([N+](=O)[O-])cc1 | inactive |
| Cc1cccnc1NC(=O)Nc1ccc(Cl)cc1 | inconclusive: 11.2 µM [activator, partial curve] |
| O=C(O)c1[nH]c2ccccc2c1C=NCc1ccccc1Cl | inactive |

Nothing new here: entries from further up.

| SMILES | Potency |
| --- | --- |
| Cn1c(=O)[nH]c(=O)c2c1nc([N+](=O)[O-])n2Cc1ccccc1 | active: 14.6 µM |
| Cc1ccc(NC(=S)Nc2ccc3cn[nH]c3c2)cc1C | inconclusive: 32.6 µM [activator, partial curve, poor fit] |
| Cc1c(C)c2ccc(OCc3ccc(C(=O)O)o3)c(C)c2oc1=O | inconclusive: 29.1 µM [activator, single point] |

Next part:

| SMILES | Potency |
| --- | --- |
| CCCn1c(/C=N/Nc2nc3ccccc3[nH]2)nc2ccccc21 | inconclusive: 7.31 µM [inhibitor, single point] |
| Cc1nn(-c2ccccc2)c2c1C1(C(=O)N3c4c(cccc41)C(C)CC3(C)C)C(C#N)=C(N)O2 (stereo unspecified) | inactive |
| O=C(N[C@H]1CCC(=O)N(CCSc2ccc(Br)cc2)CC1)OCc1ccccc1 | inconclusive: 23.1 µM [inhibitor, single point] |
| CCOc1ccccc1-c1cc(-c2ccc(OC)cc2)nc2c1c(=O)n(C)c(=O)n2C | inconclusive: 2.59 µM [inhibitor, partial curve, poor fit] |
| CCOC(=O)C1=C(C)NC2=C(C(=O)c3ccccc32)C1c1cccc2ccccc12 (stereo unspecified) | inactive |
| CCOc1ccccc1NC(=O)COC(=O)CN1C(=O)NC(C)(C)C1=O | inconclusive: 23.1 µM [activator, single point] |
| COc1ccc(-c2csc3ncnc(N4CCN(c5ccccc5O)CC4)c23)cc1 | inconclusive: 8.2 µM [inhibitor, partial curve] |
| O=c1c(-c2ccco2)[n+]([O-])c2ccccc2n1OCc1c(F)cccc1F | inconclusive: 1.03 µM [activator, full curve, poor fit] |
| Cc1ccccc1-c1nnc(SCc2ccccc2)o1 | inconclusive: 18.4 µM [activator, partial curve] |
| O=c1cc(-c2ccccc2Cl)oc2c([N+](=O)[O-])c(O)cc(O)c12 | active: 3.66 µM |
| COC(=O)c1ccc2c(=O)[nH]c(CN3c4ccccc4CC3C)nc2c1 (stereo unspecified) | inconclusive: 23.1 µM [inhibitor, single point] |
| CCN(C(=O)Cn1cnc2ccccc2c1=O)C1CCS(=O)(=O)C1 (stereo unspecified) | inconclusive: 23.1 µM [activator, single point] |
| C/C(=N/NC(=O)c1ccc(Br)o1)c1cccc(NC(=O)c2ccc(C)o2)c1 | inconclusive: 23.1 µM [inhibitor, single point] |
| CCOc1ccc(NC(=O)CSc2nnc(C3CC3)n2C2CC2)cc1 | inactive |
| COc1ccc(Br)cc1CN(C)C(C)C(=O)Nc1cccc(C(C)=O)c1 (stereo unspecified) | active: 25.9 µM |
| COC(CNC(=O)CCc1c(C)nc2c(c(C)nn2-c2ccc(C)cc2)c1C)OC | inactive |
| CC1(C)CC(N2CCN(Cc3ccccc3)CC2)=CC(=[N+]2CCCCC2)C1 | active: 0.73 µM |
| c1ccc(-c2ccc(OCCN3CCOCC3)cc2)cc1 | inconclusive: 20.6 µM [activator, partial curve] |
| CCOC(=O)C1=C(C)NC(C)=C(C(=O)OCCNC(=O)c2cccnc2)C1c1cccc([N+](=O)[O-])c1 (stereo unspecified) | inconclusive: 29.1 µM [inhibitor, single point] |
| CCc1ccc(NC(=O)C(=S)NC2CCCCC2)cc1 | inconclusive: 9.2 µM [activator, partial curve] |
| CCC[C@@H](CNC)NC[C@H](Cc1ccccc1)NCCCCc1ccccc1 | inactive |
| CCOC(=O)c1c(NC(=O)C(Sc2ccccc2)c2ccccc2)sc(C(=O)N(C)C)c1C (stereo unspecified) | inconclusive: 29.1 µM [inhibitor, single point] |
| CCC(=O)NC1=C(Nc2ccc(N)cc2)C(=O)c2ccccc2C1=O | inconclusive: 16.4 µM [activator, partial curve] |
| CCN1C(=O)C2C(C1=O)N1C(c3cccs3)C3C(=O)N(CC)C(=O)C3N1C2c1cccs1 (stereo unspecified) | inactive |

| SMILES | Potency |
| --- | --- |
| O=C(CCc1nnc(C2CCCCC2)o1)N1CCC(Oc2cccnc2)CC1 | inconclusive: 18.3 µM [inhibitor, partial curve, poor fit] |
| O=C1CN(C(=S)NC(=O)c2ccc(-c3ccccc3)cc2)CCN1 | inconclusive: 23.1 µM [activator, single point] |
| O=c1c(-c2cc3ccccc3o2)[n+]([O-])c2ccccc2n1OCc1ccccn1 | inconclusive: 10.3 µM [activator, partial curve] |
| O=C(NCc1ccccc1Cl)c1ccc2nc[nH]c2c1 | inactive |
| O=S(=O)(Nc1nc2ccccc2nc1Nc1ccc2c(c1)OCCO2)c1cccs1 | inconclusive: 23.1 µM [inhibitor, single point] |
| Cc1ccc(-c2cc(N)n(-c3ccc(F)cc3)n2)cc1 | inconclusive: 23.1 µM [activator, partial curve] |
| Cc1ccc(-c2nnc(N3CCN(C(=O)CSc4ncn[nH]4)CC3)c3ccccc23)cc1 | inactive |
| O=C(Nc1ccccc1)C1=C[C@@H](c2ccc(Br)cc2)C[C@@H](OCc2ccc(CO)cc2)O1 | inconclusive: 23.1 µM [inhibitor, partial curve, poor fit] |
| Cc1cc(CNC(=O)COc2cc(F)ccc2[N+](=O)[O-])c2ccccc2n1 | inactive |
| Cc1c(C(=O)NCC2CCCO2)oc2ccccc12 (stereo unspecified) | inconclusive: 16.4 µM [activator, partial curve] |
| COc1cccc(/C=C2\Oc3ccc(O)cc3C2=O)c1O | inconclusive: 2.91 µM [activator, partial curve] |
| O=C(N/N=C/c1cccc([N+](=O)[O-])c1O)c1cccs1 | inactive |
| COCCn1c(=NC(=O)C(C)(C)C)sc2cc([N+](=O)[O-])ccc21 | inconclusive: 14.6 µM [activator, partial curve] |
| CC1(C)Oc2ccc3ccc(=O)oc3c2[C@@H](O)[C@@H]1O | inconclusive: 13 µM [activator, partial curve] |
| Cc1c(NC(=O)c2cc(-c3ccccc3)nc3ccccc23)c(=O)n(-c2ccccc2)n1C | active: 5.8 µM |
| CC(C)CCNC(=O)c1ccc(-c2ccccc2)cc1 | inconclusive: 23.1 µM [activator, partial curve] |
| Oc1ccc2c(c1)oc1cc(O)ccc12 | inconclusive: 29.1 µM [activator, partial curve, poor fit] |
| CC(CCc1ccccc1)NC(=O)C1CCCN(C(=O)c2cc3sccc3n2C)C1 (stereo unspecified) | inconclusive: 29.1 µM [inhibitor, single point] |
| Cc1ccc(CNC(=O)c2ccc(Cn3nc(C)c(Cl)c3C)o2)cc1 | inactive |
| COc1ccc(-n2c(=O)c3ccccc3c3ccccc3c2=O)cc1 | inconclusive: 13 µM [activator, single point] |
| CCN1CCN(c2cc(C)c3cc(NC(=S)N4CCCCC4)ccc3n2)CC1 | inactive |
| Cc1ccc(-n2ncc3c(N4CCCC(C)C4)ncnc32)c(C)c1 (stereo unspecified) | inconclusive: 2.59 µM [activator, full curve] |
| CCC(C)(C#CCN1CCCCC1)OC(C)=O (stereo unspecified) | inactive |
